Experimental data taken from PubChem BioAssay AID2662 (National Center for Advancing Translational Sciences (NCATS), 2010).
Hit rate of the full screen: of about 290,000 compounds, about 110 (0.038%) were called active. Inconclusive means that the source gave no clear call. Such entries were picked first, then a sample of the others. The call rests on the fitted dose curve; in most records, active means well fitted inhibition curve with a large enough effect in the polarisation, with a control signal flat (not every such curve was filed as active); inconclusive means small, poorly fitted or top-dose-only effect, or effect the other way, or a change in a side signal; inactive means no such curve, though single readings can be large or run the other way; the % refers to the polarisation. Where the call is inconclusive, the potency comes from a doubtful curve fit. “Side channel” marks fits to a control or component signal instead of the main read-out.

Amino acid sequences for entries named in this document (tags omitted).
UniProt Q03164, whole entry, looked up: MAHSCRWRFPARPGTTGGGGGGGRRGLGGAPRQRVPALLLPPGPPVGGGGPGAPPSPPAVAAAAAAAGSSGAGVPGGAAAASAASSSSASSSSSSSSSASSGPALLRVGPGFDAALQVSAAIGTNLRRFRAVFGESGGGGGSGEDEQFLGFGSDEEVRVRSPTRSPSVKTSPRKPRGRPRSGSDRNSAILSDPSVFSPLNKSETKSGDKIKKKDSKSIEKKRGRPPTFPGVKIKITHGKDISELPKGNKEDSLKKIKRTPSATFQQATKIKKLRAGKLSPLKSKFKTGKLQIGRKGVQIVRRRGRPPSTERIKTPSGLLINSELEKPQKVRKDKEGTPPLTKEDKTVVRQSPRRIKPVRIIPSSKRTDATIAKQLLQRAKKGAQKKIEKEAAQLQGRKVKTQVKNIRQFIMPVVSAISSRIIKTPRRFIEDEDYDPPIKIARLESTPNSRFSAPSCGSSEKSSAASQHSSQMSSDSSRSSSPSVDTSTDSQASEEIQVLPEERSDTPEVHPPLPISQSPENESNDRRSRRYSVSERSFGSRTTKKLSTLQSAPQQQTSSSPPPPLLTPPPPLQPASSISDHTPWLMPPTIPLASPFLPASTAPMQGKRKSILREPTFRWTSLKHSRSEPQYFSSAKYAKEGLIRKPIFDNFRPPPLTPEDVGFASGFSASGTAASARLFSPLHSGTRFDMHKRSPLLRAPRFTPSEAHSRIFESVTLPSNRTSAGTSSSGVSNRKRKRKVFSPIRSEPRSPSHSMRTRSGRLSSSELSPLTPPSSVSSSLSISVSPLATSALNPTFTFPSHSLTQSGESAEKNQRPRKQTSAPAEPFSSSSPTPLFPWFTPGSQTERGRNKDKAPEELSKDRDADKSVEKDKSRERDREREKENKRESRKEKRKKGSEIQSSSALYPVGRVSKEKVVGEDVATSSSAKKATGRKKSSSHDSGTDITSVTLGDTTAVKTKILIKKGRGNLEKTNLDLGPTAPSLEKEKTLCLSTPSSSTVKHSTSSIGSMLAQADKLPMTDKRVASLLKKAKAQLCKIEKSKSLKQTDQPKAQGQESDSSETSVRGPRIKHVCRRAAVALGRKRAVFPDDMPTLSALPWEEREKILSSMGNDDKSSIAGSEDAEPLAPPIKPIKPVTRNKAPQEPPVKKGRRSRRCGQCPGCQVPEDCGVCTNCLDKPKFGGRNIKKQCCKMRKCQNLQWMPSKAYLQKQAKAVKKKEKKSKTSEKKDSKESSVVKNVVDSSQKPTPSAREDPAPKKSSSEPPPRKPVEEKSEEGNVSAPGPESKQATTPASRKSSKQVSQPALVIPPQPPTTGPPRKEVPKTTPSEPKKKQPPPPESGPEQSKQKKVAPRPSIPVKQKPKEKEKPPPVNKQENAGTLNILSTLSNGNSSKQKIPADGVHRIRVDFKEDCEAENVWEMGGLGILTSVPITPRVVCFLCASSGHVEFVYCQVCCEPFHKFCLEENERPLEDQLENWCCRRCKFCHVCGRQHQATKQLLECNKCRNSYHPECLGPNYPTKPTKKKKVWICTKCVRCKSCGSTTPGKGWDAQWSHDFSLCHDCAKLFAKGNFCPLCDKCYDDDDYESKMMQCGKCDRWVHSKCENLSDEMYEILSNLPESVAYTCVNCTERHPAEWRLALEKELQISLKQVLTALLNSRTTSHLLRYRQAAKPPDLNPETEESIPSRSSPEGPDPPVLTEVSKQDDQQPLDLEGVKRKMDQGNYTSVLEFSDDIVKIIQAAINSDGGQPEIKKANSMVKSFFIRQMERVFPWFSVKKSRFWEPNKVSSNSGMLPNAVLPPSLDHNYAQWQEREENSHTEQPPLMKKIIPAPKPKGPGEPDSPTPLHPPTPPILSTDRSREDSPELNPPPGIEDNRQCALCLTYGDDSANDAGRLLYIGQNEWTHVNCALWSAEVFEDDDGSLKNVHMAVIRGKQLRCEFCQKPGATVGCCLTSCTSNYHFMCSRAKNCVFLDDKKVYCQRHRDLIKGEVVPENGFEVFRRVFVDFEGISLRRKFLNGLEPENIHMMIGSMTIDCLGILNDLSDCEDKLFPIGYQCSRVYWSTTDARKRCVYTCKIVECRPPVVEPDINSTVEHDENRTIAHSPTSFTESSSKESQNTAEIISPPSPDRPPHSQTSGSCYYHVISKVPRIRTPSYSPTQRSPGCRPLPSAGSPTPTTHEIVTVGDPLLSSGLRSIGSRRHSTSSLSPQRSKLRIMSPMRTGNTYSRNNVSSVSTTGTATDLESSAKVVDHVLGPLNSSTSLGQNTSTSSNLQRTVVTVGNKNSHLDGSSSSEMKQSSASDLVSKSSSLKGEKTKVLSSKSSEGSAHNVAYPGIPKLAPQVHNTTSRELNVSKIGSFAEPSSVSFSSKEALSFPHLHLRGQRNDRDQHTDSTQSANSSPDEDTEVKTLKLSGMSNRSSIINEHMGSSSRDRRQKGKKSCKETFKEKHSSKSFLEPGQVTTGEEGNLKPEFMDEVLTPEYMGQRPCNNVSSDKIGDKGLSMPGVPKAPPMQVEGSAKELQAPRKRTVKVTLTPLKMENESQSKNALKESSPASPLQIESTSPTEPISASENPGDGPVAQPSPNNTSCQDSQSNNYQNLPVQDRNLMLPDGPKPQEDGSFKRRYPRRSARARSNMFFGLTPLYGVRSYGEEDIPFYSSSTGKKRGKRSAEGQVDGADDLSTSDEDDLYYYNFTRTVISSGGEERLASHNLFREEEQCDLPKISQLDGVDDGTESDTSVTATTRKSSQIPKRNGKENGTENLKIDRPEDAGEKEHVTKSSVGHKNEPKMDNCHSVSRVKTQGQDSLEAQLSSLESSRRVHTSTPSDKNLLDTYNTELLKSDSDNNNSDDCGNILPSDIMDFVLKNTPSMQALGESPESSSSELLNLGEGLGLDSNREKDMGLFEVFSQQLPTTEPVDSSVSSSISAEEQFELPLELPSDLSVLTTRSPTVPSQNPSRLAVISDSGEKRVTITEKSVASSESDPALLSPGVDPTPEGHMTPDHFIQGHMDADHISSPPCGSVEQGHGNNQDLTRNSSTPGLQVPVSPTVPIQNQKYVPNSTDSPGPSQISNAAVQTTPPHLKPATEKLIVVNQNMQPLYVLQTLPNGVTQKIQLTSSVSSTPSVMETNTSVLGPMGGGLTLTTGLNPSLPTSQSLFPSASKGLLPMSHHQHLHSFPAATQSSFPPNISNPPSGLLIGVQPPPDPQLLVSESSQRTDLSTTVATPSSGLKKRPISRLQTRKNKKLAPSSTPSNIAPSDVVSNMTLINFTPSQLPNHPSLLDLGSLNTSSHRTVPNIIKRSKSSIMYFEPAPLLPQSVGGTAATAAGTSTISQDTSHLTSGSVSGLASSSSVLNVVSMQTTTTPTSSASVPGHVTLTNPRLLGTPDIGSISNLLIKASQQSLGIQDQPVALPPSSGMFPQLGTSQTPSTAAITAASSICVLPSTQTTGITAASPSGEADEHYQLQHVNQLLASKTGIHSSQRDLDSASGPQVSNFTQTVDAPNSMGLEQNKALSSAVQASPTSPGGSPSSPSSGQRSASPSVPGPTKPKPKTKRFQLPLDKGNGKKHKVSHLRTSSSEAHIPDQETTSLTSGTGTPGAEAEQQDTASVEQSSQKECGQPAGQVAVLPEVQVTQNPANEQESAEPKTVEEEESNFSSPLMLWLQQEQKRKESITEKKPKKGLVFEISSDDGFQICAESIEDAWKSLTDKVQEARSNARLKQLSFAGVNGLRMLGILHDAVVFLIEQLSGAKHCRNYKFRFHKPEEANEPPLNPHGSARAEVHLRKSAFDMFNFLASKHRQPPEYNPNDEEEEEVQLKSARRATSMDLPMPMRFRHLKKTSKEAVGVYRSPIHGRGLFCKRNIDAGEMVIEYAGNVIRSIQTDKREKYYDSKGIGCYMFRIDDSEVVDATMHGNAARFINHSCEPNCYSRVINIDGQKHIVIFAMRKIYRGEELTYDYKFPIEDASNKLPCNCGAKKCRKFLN

molecular target: Histone-lysine N-methyltransferase 2A (Homo sapiens) (UniProt Q03164); assay: qHTS Fluorescence Polarization Assay for Inhibitors of MLL CXXC domain - DNA interaction; details: MLL-CXXC / FITC-HOXA9 DNA fluorescence polarization; series mostly up to 115 µM
Procedure, shortened: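 Fluorescence polarization: 7 uM MLL-CXXC (stock) preincubated 5 min with compounds, then 50 nM fluorescein-HOX-A9 DNA (stock) added; 30 min ambient. Buffer 50 mM Tris-HCl pH 7.5, 50 mM NaCl, 1 mM DTT, 0.05% BSA.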
Potency means the concentration at half of the fitted maximal effect.

SMILES | Potency
CN1CCC2(CC1)N=C(c1ccc(F)cc1)C(=S)N2C(=O)c1ccc(C(C)(C)C)cc1 | inconclusive: 11.2 µM [quencher, side channel, partial curve]
Cc1coc2c(C)c3oc(=O)c(CCC(=O)N[C@@H](C)C(=O)N[C@@H](Cc4ccccc4)C(=O)O)c(C)c3cc12 | inactive
c1coc(CNc2nc3ccccc3s2)c1 | inconclusive: 70.8 µM [fluorescent, side channel, single point]
COc1ccc(NC2CCCN(C(=O)c3cccc(C(F)(F)F)c3)C2)cc1OC (centres undefined) | inconclusive: 89.1 µM [fluorescent, side channel, single point]
CCCN1CCN(CCCNC(=O)c2cc3c(=O)[nH]c4ccc(C)cc4c3s2)CC1 | inconclusive: 35.5 µM [inhibitor, partial curve]
CC(=O)Nc1c(O)nc(SC/C=C/CSc2nc(O)c(NC(C)=O)c(=O)[nH]2)[nH]c1=O | inconclusive: 11.2 µM [fluorescent, side channel, full curve]
c1ccc2sc(SSc3nc4ccccc4s3)nc2c1 | inactive
NNC(=O)Cn1c(-c2ccccc2)cc2ccccc21 | inconclusive: 11.2 µM [fluorescent, side channel, single point]
O=C(Cc1ccc(Cl)cc1)Oc1cccc2cccnc12 | inactive
O=C(c1cc(-c2cccc(Cl)c2)nc2ccccc12)N1CCN(c2ccccn2)CC1 | inconclusive: 10 µM [fluorescent, side channel, full curve]
O=C1CSC(=S)N1/N=C/c1ccc(O)c(O)c1O | inconclusive: 50.1 µM [inhibitor, partial curve]
CCOc1ccc(-n2c(SCC(=O)O)nc3sc4c(c3c2=O)CCCC4)cc1 | inconclusive: 20 µM [fluorescent, side channel, partial curve]
Cc1cccc(NC(=O)COc2ccccc2C(=O)NC(C)c2ccccc2)c1 (centres undefined) | inactive
O=C(O)Cc1ccc(NC(=O)c2cnccn2)cc1 | inconclusive: 70.8 µM [fluorescent, side channel, single point]
COc1ccccc1CCNC(=O)c1c(C)nn(CC(C)C)c1Cl | inactive
COc1ccc(-c2nnc(-c3ccc(C)cc3)o2)cc1 | inconclusive: 70.8 µM [fluorescent, side channel, single point]
CCCCC(=O)O[C@H]1CC[C@H]2[C@@H]3CCc4cc(O)ccc4[C@H]3CC[C@]12C | inconclusive: 25.1 µM [quencher, side channel, partial curve, poor fit]
Cc1cc(C)c2nc3nc(C)c(C)cc3c(N)c2c1 | inconclusive: 28.2 µM [quencher, side channel, partial curve, poor fit]
N#Cc1c(-c2ccc(F)cc2)cc(-c2cccs2)nc1SCC(=O)O | inconclusive: 44.7 µM [fluorescent, side channel, single point]
COCC(C)NC(=O)c1cccc(Cl)c1 (centres undefined) | inactive

SMILES | Potency
CCN1CCN(Cc2c(O)ccc3c2O/C(=C\c2ccc(C)cc2)C3=O)CC1 | inconclusive: 70.8 µM [fluorescent, side channel, single point]
CC(C)Cn1c(SCC(=O)NCc2ccco2)nnc1-c1ccncc1 | inconclusive: 11.2 µM [inhibitor, partial curve]
CCCCN(CCCNC(=O)Cn1ncc2ccsc2c1=O)Cc1ccccc1 | inconclusive: 44.7 µM [fluorescent, side channel, single point]
Cc1ccc(Nc2c(-c3ccccn3)nc3cc(C)ccn23)cc1 | inconclusive: 31.6 µM [quencher, side channel, partial curve]
CCN1CCCC1Cn1cnc2c([nH]c3ccc(C)cc32)c1=O (centres undefined) | inconclusive: 11.2 µM [quencher, side channel, single point]
CCOC(=O)/C(=C/c1ccc(OC(=O)c2ccncc2)cc1)C(C)=O | inconclusive: 1 µM [quencher, side channel, full curve]
CC(=O)n1cc([C@@H]2C=C(C(=O)O)O[C@H](OCc3ccc(CO)cc3)C2)c2ccccc21 | inconclusive: 31.6 µM [inhibitor, partial curve]
CSc1ccccc1OCc1cc(C(=O)NC(C)Cn2cncn2)no1 (centres undefined) | inconclusive: 7.94 µM [quencher, side channel, single point]
CCOC(=O)c1c(C)[nH]c(C)c1C(=O)COC(=O)c1cc(OC)cc(OC)c1 | inconclusive: 70.8 µM [fluorescent, side channel, single point]
O=C(C[n+]1cccc2ccccc21)c1ccc(Cl)cc1 | inconclusive: 35.5 µM [fluorescent, side channel, partial curve]
Cc1cc2cc(CNS(=O)(=O)c3ccc4ccccc4c3)ccc2n1C | inactive
Cc1ccc(C)c(NS(=O)(=O)c2ccc3[nH]c(=O)[nH]c3c2)c1 | inconclusive: 1 µM [quencher, side channel, full curve, poor fit]
CC(=O)c1ccc(NC(=O)NC2CCCc3ccccc32)cc1 (centres undefined) | inconclusive: 14.1 µM [fluorescent, side channel, full curve]
Cc1cccc2c1cnn2C(=O)Nc1ccccc1Cl | inconclusive: 70.8 µM [fluorescent, side channel, single point]
C[n+]1cc2c3c(ccc2c2ccc4cc5c(cc4c21)OCO5)OCO3 | inconclusive: 39.8 µM [quencher, side channel, partial curve]
COCCCNC(=O)c1cn(C)c(=O)c2c1c1ccccc1n2C | inconclusive: 35.5 µM [fluorescent, side channel, single point]
Cc1cccc(N(Cc2ccccc2)C(=O)c2ccc(S(C)(=O)=O)cc2)c1 | inconclusive: 1 µM [inhibitor, full curve, poor fit]
COc1cccc(C(=O)n2c(SC)nc3cc4c(cc32)OCCO4)c1 | inconclusive: 35.5 µM [fluorescent, partial curve]
CC1CCN(C(=O)CSc2nc(N)c3c4c(sc3n2)CN(C)CC4)CC1 | inactive
CCNC(=O)C1CCCN1C(=O)C(CCCN=C(N)N)NC(=O)C(CC(C)C)NC(=O)C(Cc1cn(Cc2ccccc2)cn1)NC(=O)C(Cc1ccc(O)cc1)NC(=O)C(CO)NC(=O)C(Cc1c[nH]c2ccccc12)NC(=O)C(Cc1cnc[nH]1)NC(=O)C1CCC(=O)N1 (centres undefined) | inconclusive: 25.1 µM [quencher, side channel, partial curve, poor fit]

Of the compounds above, these have an aryl methoxy group:
SMILES | Potency
COc1ccc(NC2CCCN(C(=O)c3cccc(C(F)(F)F)c3)C2)cc1OC (centres undefined) | inconclusive: 89.1 µM [fluorescent, side channel, single point]
COc1ccccc1CCNC(=O)c1c(C)nn(CC(C)C)c1Cl | inactive
COc1ccc(-c2nnc(-c3ccc(C)cc3)o2)cc1 | inconclusive: 70.8 µM [fluorescent, side channel, single point]
CCOC(=O)c1c(C)[nH]c(C)c1C(=O)COC(=O)c1cc(OC)cc(OC)c1 | inconclusive: 70.8 µM [fluorescent, side channel, single point]
COc1cccc(C(=O)n2c(SC)nc3cc4c(cc32)OCCO4)c1 | inconclusive: 35.5 µM [fluorescent, partial curve]

Following part:

SMILES | Potency
O=C(Cc1ccc(F)cc1)NC1CCCCCC1 | inactive
CC(C)n1nc(C(=O)Nc2ccccc2N2CCOCC2)c2ccccc2c1=O | inconclusive: 1.12 µM [fluorescent, side channel, full curve, poor fit]
O=C(N/N=C/c1ccc(Sc2ccccn2)o1)c1cc2ccccc2cc1O | inactive
NS(=O)(=O)c1cccc(NC(=O)COC(=O)COc2ccc3ccccc3c2)c1 | inconclusive: 44.7 µM [fluorescent, side channel, partial curve]
COc1cc(CO)ccc1Oc1nc2ccccc2n2cnnc12 | inconclusive: 63.1 µM [fluorescent, side channel, single point]
CC1=NN(c2ccc(C)cc2C)C(=O)C1C(c1ccccc1O)C1C(=O)N(c2ccc(C)cc2C)N=C1C (centres undefined) | inconclusive: 14.1 µM [fluorescent, side channel, single point]
Cc1cc(C(=O)COC(=O)c2ccc(N)cc2)c(C)n1-c1c(C)n(C)n(-c2ccccc2)c1=O | inconclusive: 35.5 µM [inhibitor, partial curve]
O=C(NNC(=O)c1ccccc1OCc1ccc(F)cc1)c1ccccc1O | inconclusive: 8.91 µM [quencher, side channel, full curve, poor fit]
O=C(O)c1[nH]c2ccccc2c1C(c1cc(Cl)cc([N+](=O)[O-])c1O)c1c(C(=O)O)[nH]c2ccccc12 | inconclusive: 25.1 µM [inhibitor, partial curve, poor fit]
Fc1ccc(C2=CC(c3ccco3)n3ncnc3N2)cc1 (centres undefined) | inactive
CC1(C)CC(=O)C(=Cc2cn(CCC#N)nc2-c2ccc(Cl)cc2)C(=O)C1 | inconclusive: 56.2 µM [inhibitor, single point]
COc1ccc(-c2cc(C(F)(F)F)c3c(n2)sc2c(O)cc(=O)[nH]c23)c(OC)c1 | inactive
Cc1ccc(N2C(=O)C3C4C=CC(C4)C3C2=O)cc1 (centres undefined) | inactive
CCOc1ccccc1C(=O)N(Cc1sccc1C)C1CCS(=O)(=O)C1 (centres undefined) | inconclusive: 14.1 µM [fluorescent, side channel, single point]
O=C1CCCC2=C1C(Cc1ccccc1)C1=C(CCCC1=O)O2 | inactive
O=C(CSc1nnc(CNC(=O)c2c(F)cccc2F)o1)NCc1ccccc1Cl | inconclusive: 15.8 µM [quencher, side channel, single point]
Cc1cccc2cc(C3CC(c4cccs4)=NN3C(=O)CCC(=O)O)c(Cl)nc12 (centres undefined) | inconclusive: 63.1 µM [inhibitor, single point]
C(=N\Nc1nc2ccccc2[nH]1)/c1c[nH]c2ccccc12 | inactive
Cc1ccc2nc(-c3ccncc3)cc(C(=O)NCc3ccccc3F)c2c1 | inconclusive: 7.94 µM [fluorescent, side channel, single point]
